Laboratory results from article PMC5591263.
Results are given in words; binding and its absence hold for the method and conditions named. Binding seen in cells or lysates may run through a third protein. Some entries that bind do so weakly or less than the wild type.

Sequences of proteins named here, by UniProt entry; tags and fusion partners are left off.
UniProt Q9Z2X8: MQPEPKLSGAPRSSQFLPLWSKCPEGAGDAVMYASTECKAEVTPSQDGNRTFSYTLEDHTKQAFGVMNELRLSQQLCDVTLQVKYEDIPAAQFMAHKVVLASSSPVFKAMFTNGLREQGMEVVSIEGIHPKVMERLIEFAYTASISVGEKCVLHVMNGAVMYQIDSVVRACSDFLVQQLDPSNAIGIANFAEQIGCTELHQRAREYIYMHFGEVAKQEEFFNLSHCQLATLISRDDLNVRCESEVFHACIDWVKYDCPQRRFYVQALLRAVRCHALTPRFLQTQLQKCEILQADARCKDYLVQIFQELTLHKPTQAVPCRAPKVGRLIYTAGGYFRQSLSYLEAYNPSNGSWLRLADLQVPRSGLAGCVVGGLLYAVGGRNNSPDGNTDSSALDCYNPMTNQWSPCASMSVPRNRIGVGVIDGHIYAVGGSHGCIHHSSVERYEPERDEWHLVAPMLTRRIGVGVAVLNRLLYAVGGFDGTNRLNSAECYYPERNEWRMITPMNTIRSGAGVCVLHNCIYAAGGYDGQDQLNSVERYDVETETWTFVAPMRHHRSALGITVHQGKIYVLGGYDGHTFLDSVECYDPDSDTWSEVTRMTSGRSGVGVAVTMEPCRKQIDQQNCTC
UniProt Q9JLV5: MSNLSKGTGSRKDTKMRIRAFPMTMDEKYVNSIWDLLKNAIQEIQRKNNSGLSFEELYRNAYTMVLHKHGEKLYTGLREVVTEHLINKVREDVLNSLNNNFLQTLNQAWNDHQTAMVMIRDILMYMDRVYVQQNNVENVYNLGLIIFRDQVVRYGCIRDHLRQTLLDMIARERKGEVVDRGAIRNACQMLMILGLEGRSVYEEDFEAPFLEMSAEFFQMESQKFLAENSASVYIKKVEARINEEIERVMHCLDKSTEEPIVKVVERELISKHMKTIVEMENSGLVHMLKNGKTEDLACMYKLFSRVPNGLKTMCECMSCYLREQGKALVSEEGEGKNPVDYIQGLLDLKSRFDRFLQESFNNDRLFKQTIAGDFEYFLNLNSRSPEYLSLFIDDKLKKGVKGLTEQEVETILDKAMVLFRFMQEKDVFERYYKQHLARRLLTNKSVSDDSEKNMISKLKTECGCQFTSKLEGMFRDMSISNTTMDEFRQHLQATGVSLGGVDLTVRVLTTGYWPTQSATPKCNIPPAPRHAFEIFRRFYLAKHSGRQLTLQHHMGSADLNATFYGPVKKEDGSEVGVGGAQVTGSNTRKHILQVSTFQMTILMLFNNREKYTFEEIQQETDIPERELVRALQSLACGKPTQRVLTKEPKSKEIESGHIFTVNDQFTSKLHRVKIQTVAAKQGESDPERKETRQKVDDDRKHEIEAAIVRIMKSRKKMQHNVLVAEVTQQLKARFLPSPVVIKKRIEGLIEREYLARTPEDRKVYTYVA

How the values were obtained:
[1] = target: Keap1 (mouse (endogenous in Balb/c colon)) (UniProt Q9Z2X8); experiment: condition: only colon of mice treated with carnosic acid (CA); co-IP; as a1, colonic tissue of DSS-treated mice given carnosic acid (CA, 50 and 100 mg/kg by gavage once daily); immunoprecipitated with anti-Keap1 antibody; Western blot
[2] = target: Keap1 (mouse (endogenous in Balb/c colon)) (UniProt Q9Z2X8); experiment: co-IP; colonic tissue of mice (DSS colitis model) homogenised in lysis buffer with Triton X-100; immunoprecipitated with anti-Keap1 antibody or IgG and protein A/G-Sepharose; Western blot

binding [1]: no binding
binding [2]: binds
Substance: Cullin3 (from UniProt Q9JLV5 1-768)
